Data source: PubChem BioAssay AID1508588 (Peter MacCallum Cancer Centre, 2020)

Screen: 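Knock-downs boosting vemurafenib effects on melanoma cell growth or lactate release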 (primary screen)
System: human WM266.4 melanoma cells (BRAF V600 mutant)
Reagents: siRNA pool against human genes, 40 nM
Duration: 96 h from transfection to read-out
Challenge: vemurafenib 300 nM (about IC25), added 48 h after transfection, for 48 h; comparison arm got DMSO vehicle only
Detection: 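Ratios to non-targeting siRNA for cell gain, counted as DAPI nuclei after minus before drug and averaged over two replicates, and for absorbance-read medium lactate per cell; both binned into fold-change classes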
Reading the numbers: cell gain with vemurafenib: higher = more cell gain than with non-targeting siRNA; lactate per cell with vemurafenib: higher = more lactate made per cell
Call rule: 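a knock-down counts as enhancing when its fold-change classes with vehicle and with vemurafenib, taken together, show a stronger drug effect on cell gain or lactate per cell; exact class pairs not stated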
Meaning of the calls: active = enhances vemurafenib effect; inactive = no enhancement seen
The whole screen tested about 18,000 reagents; shown is a part drawn at random. 790 of all reagents (4.4%) count as active. 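Calls rest on a combination of fold-change classes in drug and vehicle arms, not all shown here.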 A number with no mark means an inactive call. The numbers tell different reagents against one gene apart.

gene knocked down	reagent	cell gain with vemurafenib	lactate per cell with vemurafenib
SAMD9 (GeneID 54809)	1	0.34	0.48
ENO1 (GeneID 2023)	1	0.66	0.82
PCK1 (GeneID 5105)	1	0.18	1.29
TOM1L2 (GeneID 146691)	1	0.83	0.93
WDR90 (GeneID 197335)	1	0.92	0.88
CEMIP (GeneID 57214)	1	1.2	0.73
RRP12 (GeneID 23223)	1	0.43	1.52
TRIM59 (GeneID 286827)	1	0.99	0.99
ZNF774 (GeneID 342132)	1	1.19	0.61
CCL20 (GeneID 6364)	1	0.95	0.6
TMEM141 (GeneID 85014)	1	0.04	0.8
SHARPIN (GeneID 81858)	1	0.92	0.5
SGSH (GeneID 6448)	1	0.69	0.65
SERPINC1 (GeneID 462)	1	0.33	1.52
CHRNB3 (GeneID 1142)	1	0.81	0.54
CCDC47 (GeneID 57003)	1	0.28	0.88
IFI30 (GeneID 10437)	1	0.89	0.72
SLC5A6 (GeneID 8884)	1	0.73	0.39
WASF1 (GeneID 8936)	1	0.67	0.26
FBXO24 (GeneID 26261)	1	0.4	0.94
UNC5A (GeneID 90249)	1	0.96	0.93
RPS6 (GeneID 6194)	1	-0.09	1.73
STUB1 (GeneID 10273)	1	1.1	0.68
SLC7A3 (GeneID 84889)	1	1.15	0.63
METTL27 (GeneID 155368)	1	0.84	1.38
PLK3 (GeneID 1263)	1	0.31	0.74
PDK4 (GeneID 5166)	1	0.51	0.65
RALGAPA1 (GeneID 253959)	1	0.09	2.38
DNASE1L2 (GeneID 1775)	1	0.9	0.77
KCNN4 (GeneID 3783)	1	0.87	1.07
GPR55 (GeneID 9290)	1	1.24	0.86
UBQLNL (GeneID 143630)	1	0.85	0.88
ENTHD1 (GeneID 150350)	1	0.27	1.71
TBC1D3B (GeneID 414059)	1	1.15	0.63
TMPRSS11A (GeneID 339967)	1	0.76	0.77
ANKRD29 (GeneID 147463)	1	0.75	1.03
BACE2 (GeneID 25825)	1	0.52	1.2
ENTPD4 (GeneID 9583)	1	0.78	1.48
ALKBH3 (GeneID 221120)	1	0.66	0.28
MOB1B (GeneID 92597)	1	0.6	0.51
RBP3 (GeneID 5949)	1	0.51	1.34
UQCRC1 (GeneID 7384)	1	0.83	1.48
LPAR6 (GeneID 10161)	1	1.1	1.3
DIO1 (GeneID 1733)	1	-0.01	2.2
TRPC5 (GeneID 7224)	1	0.58	0.2
RCE1 (GeneID 9986)	1	1.21	1.12
SQOR (GeneID 58472)	1	0.45	1.07
ERGIC3 (GeneID 51614)	1	0.29	1.16
IFNK (GeneID 56832)	1	0.01	0.96
VBP1 (GeneID 7411)	1	0.99	0.53
GKN2 (GeneID 200504)	1	0.41	1.89
ABCC11 (GeneID 85320)	1	0.89	0.8
NBPF7P (GeneID 343505)	1	0.64	1.38
BHMT (GeneID 635)	1	0.57	0.7
DEFB104A (GeneID 140596)	1	0.54	0.9
SHISA6 (GeneID 388336)	1	0.45	1.36
TEX29 (GeneID 121793)	1	0.62	0.7
LIPG (GeneID 9388)	1	1.01	0.63
UTP3 (GeneID 57050)	1	0.44	0.22
ENOX1 (GeneID 55068)	1	0.64	1.28
PGR (GeneID 5241)	1	0.43	1.23
CBY2 (GeneID 220082)	1	0.94	0.76
HAL (GeneID 3034)	1	0.47	0.88
SFMBT1 (GeneID 51460)	1	1.5	0.56
CYP2C19 (GeneID 1557)	1	0.6	0.81
PIK3C2G (GeneID 5288)	1	0.23	1.6
PKD2L2 (GeneID 27039)	1	0.46	0.74
PLCB1 (GeneID 23236)	1	0.89	0.6
WWC3 (GeneID 55841)	1	0.13	0.87
TSR1 (GeneID 55720)	1	0.74	1.02
FBXO25 (GeneID 26260)	1	0.93	0.72
MTERF3 (GeneID 51001)	1	0.83	0.84
KRTAP5-7 (GeneID 440050)	1	0.4	1.81
ALMS1 (GeneID 7840)	1	0.15	1.42
COL12A1 (GeneID 1303)	1	0.36	1.38
CFAP46 (GeneID 54777)	1	0.38	0.64
CFAP46 (GeneID 54777)	2	0.67	0.78
IZUMO1 (GeneID 284359)	1	0.68	0.51
CHMP6 (GeneID 79643)	1	0.64	1.2
VPS37C (GeneID 55048)	1	0.2	1.98
DLG5 (GeneID 9231)	1	0.93	0.51
NEU2 (GeneID 4759)	1	0.6	0.48
CYP2C9 (GeneID 1559)	1	1.13	0.68
TMC4 (GeneID 147798)	1	0.68	0.74
NRARP (GeneID 441478)	1	0.72	0.47
RDH10 (GeneID 157506)	1	0.73	1.3
DNASE1L1 (GeneID 1774)	1	0.7	0.58
MRPS31 (GeneID 10240)	1	1.13	0.82
HSD17B14 (GeneID 51171)	1	0.27	1.52
TMEM215 (GeneID 401498)	1	0.84	0.92
KMT2A (GeneID 4297)	1	1.14	0.68
GPR151 (GeneID 134391)	1	0.29	1.47
H2AZ1 (GeneID 3015)	1	0.87	0.9
EVI5L (GeneID 115704)	1	0.89	0.39
MYO5A (GeneID 4644)	1	0.81	0.53
KIAA0586 (GeneID 9786)	1	0.3	0.51
TTC23L (GeneID 153657)	1	1.01	0.39
RAB13 (GeneID 5872)	1	0.32	1.12
ASPG (GeneID 374569)	1	0.79	0.78
VAMP8 (GeneID 8673)	1	0.33	1.02
CATSPERB (GeneID 79820)	1	0.29	0.79
FAM131C (GeneID 348487)	1	0.4	1.21
MTERF1 (GeneID 7978)	1	0.71	1.28
VPS8 (GeneID 23355)	1	1.03	1.02
TSNAXIP1 (GeneID 55815)	1	0.44	0.34
MACROH2A1 (GeneID 9555)	1	0.99 (active)	0.41
PALLD (GeneID 23022)	1	0.8	0.77

Entries listed so far whose gene name begins with E or e:
gene knocked down	reagent	cell gain with vemurafenib	lactate per cell with vemurafenib
ENO1 (GeneID 2023)	1	0.66	0.82
ENTHD1 (GeneID 150350)	1	0.27	1.71
ENTPD4 (GeneID 9583)	1	0.78	1.48
ERGIC3 (GeneID 51614)	1	0.29	1.16
ENOX1 (GeneID 55068)	1	0.64	1.28
EVI5L (GeneID 115704)	1	0.89	0.39
